Measurements taken from article PMC7819943, “Rice protein-binding microarrays: a tool to detect cis-acting elements near promoter regions in rice”.
The other results are listed elsewhere or left out.

Chains of the proteins cited; added tags and fusions are not shown.
UniProt Q0JBA9, entry or part of it: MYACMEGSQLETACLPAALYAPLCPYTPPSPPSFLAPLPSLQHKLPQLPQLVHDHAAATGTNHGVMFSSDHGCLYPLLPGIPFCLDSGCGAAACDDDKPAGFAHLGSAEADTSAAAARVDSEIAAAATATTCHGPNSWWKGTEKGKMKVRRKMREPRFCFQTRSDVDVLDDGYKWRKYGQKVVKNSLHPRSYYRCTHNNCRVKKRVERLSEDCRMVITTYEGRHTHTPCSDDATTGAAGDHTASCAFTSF

What follows are sequences tested against OsWRKY34 (Oryza sativa, UniProt Q0JBA9 1-250) (assay: protein-binding microarray (RPBM); PBS, 2% BSA, 51.3 ng/ul salmon testes DNA, 50 uM zinc acetate, 200 nM TF, 25 C, 1 h; high values mean tight binding). Conditions: protein: recombinant; tags: N-terminal polyhistidine and DsRed monomer fusion (pET32a); label: CyDye5-dUTP incorporated in the synthesized complementary strand; 3' TTTTT single-stranded linker to array surface; dsDNA, one strand shown.
Procedure, shortened: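 For the binding signal, per-feature fluorescence intensity was read in arbitrary units on an Axon 4000B scanner. Before scanning, a 2% BSA-blocked custom Agilent array made double-stranded with Cy5-dUTP was washed after 1 h at 25 °C with 200 nM protein and 50 µM zinc acetate. The proteins were Ni–NTA-purified transcription factors with N-terminal polyhistidine and DsRed fusions, expressed in E. coli BL21-CodonPlus.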

Sequence | binding signal
CCTTGTTTGCTCGGTTTTTGTAAGTTGAGGGACGGGTCATCGGAGTCACCTAGTGCAG | 18700 fluorescence intensity (a.u.)
GCCCTCGCCCGCCGACGTCGCCGCCCCTGCCCACAGATTGCGGAGTCACCTAGTGCAG | 8180 fluorescence intensity (a.u.)
ATGCCGTCGCAATCTGATTTCGTTGTTACTAAAGCTCTCACGGAGTCACCTAGTGCAG | 8110 fluorescence intensity (a.u.)
GCTGATGTGTTTGTGCAGCTGGATTGGCTTTTCGCTAGAGCGGAGTCACCTAGTGCAG | 9000 fluorescence intensity (a.u.)
TTCGTACACATTTGGTCGCTGTAATTTTATTCCTTAAATGCGGAGTCACCTAGTGCAG | 9370 fluorescence intensity (a.u.)
TTTGAGTCTATCTCTCTCATCCAAGTCCTGTGTTTTTCATCGGAGTCACCTAGTGCAG | 8670 fluorescence intensity (a.u.)
TGATTGTTTACTGCTTTCAAATTAACAATTCAATGGTTCTCGGAGTCACCTAGTGCAG | 8290 fluorescence intensity (a.u.)
CCTGCCGCTTGCCGCTCCGCTGTTCCCATCCCGCTCCCACCGGAGTCACCTAGTGCAG | 8130 fluorescence intensity (a.u.)
ATTTTAGTTTCTTTACTGTAGTTTCTTTTGCTACCTTTTTCGGAGTCACCTAGTGCAG | 13000 fluorescence intensity (a.u.)
GGATTTGCTTGATGGATCCGGAGTCATATAACATGTTTGCCGGAGTCACCTAGTGCAG | 8110 fluorescence intensity (a.u.)
GAGTCTTGATAAGTGCACCCATCTCATCTCATCTCCTACTCGGAGTCACCTAGTGCAG | 8140 fluorescence intensity (a.u.)
ATTCGTCTCGCGGTTTACTGTCGGATTCTGTAATTAGTTTCGGAGTCACCTAGTGCAG | 12900 fluorescence intensity (a.u.)
CGGATACTGTAATTAGTTTTTTTATTAGTGTTCAAACACCCGGAGTCACCTAGTGCAG | 8470 fluorescence intensity (a.u.)
GCGGTGCGTGACGGTGACCGGAGAGTCGGGGTGGGGCTGCCGGAGTCACCTAGTGCAG | 10400 fluorescence intensity (a.u.)
GGCATCCACGTCGCGCTGTCCCGCGACGTCGCCGTCCTCACGGAGTCACCTAGTGCAG | 8280 fluorescence intensity (a.u.)
ATATATATATATATATATATATATATATATGTTCTTAGCACGGAGTCACCTAGTGCAG | 8220 fluorescence intensity (a.u.)
CTTTTGTTCTTTTGTGTGCTAGTTCAATTTTCTTATCTAACGGAGTCACCTAGTGCAG | 8060 fluorescence intensity (a.u.)
CCATTTTCTCCTGCGTTCTCTTTCTTTCTTCGAGCCACTTCGGAGTCACCTAGTGCAG | 8270 fluorescence intensity (a.u.)
CATCTTCATCAGTTTCGCCTATGGACGTGTCATGTTATCTCGGAGTCACCTAGTGCAG | 12900 fluorescence intensity (a.u.)
GATCGTCGTCCGTGTCCTTGCTCGATTTGCTCCCCATCTTCGGAGTCACCTAGTGCAG | 8900 fluorescence intensity (a.u.)
TCGATCACACACGGACACAGAGTCTCCGCCGCATTTTCTTCGGAGTCACCTAGTGCAG | 8170 fluorescence intensity (a.u.)
CCTCTTTCCTCCTCCAAATTAATCTCATCCTAATTCTGTTCGGAGTCACCTAGTGCAG | 12600 fluorescence intensity (a.u.)
CTATTTTATATCTTTTGCTTTGTTTTTGACCGCGGGAGGGCGGAGTCACCTAGTGCAG | 9380 fluorescence intensity (a.u.)
GCCAGACCGCCACCGTCCGTTTCCACAACCGTGCCAGTGCCGGAGTCACCTAGTGCAG | 10700 fluorescence intensity (a.u.)
TTGTAAGTTAGGGACCTGTTGTATCTGATTTTTTGGTTGACGGAGTCACCTAGTGCAG | 8210 fluorescence intensity (a.u.)
TCCCACCTGTCTTCTCTGCTGACCAATCATCAGAAGGAGACGGAGTCACCTAGTGCAG | 8440 fluorescence intensity (a.u.)
TCTAATCTCTTGCCATTTCCTTGTGCCTCGCTTGCTCATCCGGAGTCACCTAGTGCAG | 9860 fluorescence intensity (a.u.)

Sequence | binding signal
ACTGTCCCATCGCTGCCAAGTGGTTTTGGCTTGTTCTTTCCGGAGTCACCTAGTGCAG | 10700 fluorescence intensity (a.u.)
ACGAGTCGTCGGGCCCACCTGTCACTCACTCTACGCGACTCGGAGTCACCTAGTGCAG | 10600 fluorescence intensity (a.u.)
CATGGCAGTATAGAGCAATTTTTCCCCTGTTTTTGCTGACCGGAGTCACCTAGTGCAG | 9920 fluorescence intensity (a.u.)
TCGATCATGAATCTGGTTTAACTTTTAACGCTGTCACGCACGGAGTCACCTAGTGCAG | 9170 fluorescence intensity (a.u.)
ACCATCTTTTAAATCAGACCTCTCACCAATTTTGATATTTCGGAGTCACCTAGTGCAG | 8230 fluorescence intensity (a.u.)
TAATCAGGGGTGAGGAGATTAGTTTGTTTCTAAAAATCATCGGAGTCACCTAGTGCAG | 8180 fluorescence intensity (a.u.)
ACCGCAAACATATTTCTTCTCTTTTTATATCTATAGCATCCGGAGTCACCTAGTGCAG | 8060 fluorescence intensity (a.u.)
GTGAAATCTCCTCTTGACCCCGCGATGACTACGCCGCACTCGGAGTCACCTAGTGCAG | 8190 fluorescence intensity (a.u.)
GGTTTTTTATTGCCTGGTTATTTTTCCTGCCCGGTTTTTTCGGAGTCACCTAGTGCAG | 10500 fluorescence intensity (a.u.)
CTATATGTCTGTATATGACTTCGCAATCAGCCAATCAATTCGGAGTCACCTAGTGCAG | 9200 fluorescence intensity (a.u.)
CTTGCGGTTGCTTTTGTTCGTCTTCTCCCGGAGATTCGGCCGGAGTCACCTAGTGCAG | 8310 fluorescence intensity (a.u.)
TTAGTTATTATTAGTGCAGGTGGAGGTGGAGGGCTTGCATCGGAGTCACCTAGTGCAG | 8150 fluorescence intensity (a.u.)
GTTGTGTTGTGCAAATTATGTGTATCTTGTAAAAAATCTTCGGAGTCACCTAGTGCAG | 8270 fluorescence intensity (a.u.)
GCATCTCTCGGCATCCACCGATCGGACCGGCCACCTCACACGGAGTCACCTAGTGCAG | 8050 fluorescence intensity (a.u.)
TCCCTCGCACCCCGATCCCACCCGTCCATTTTCTCCCTCACGGAGTCACCTAGTGCAG | 8570 fluorescence intensity (a.u.)
CTGTGGTCGGACCAGCCCGTGAAGGAAACCCGACGCTTTCCGGAGTCACCTAGTGCAG | 8160 fluorescence intensity (a.u.)
GGGTTCAAAGTCTCATATGCTAACTATATACTTGTTACTGCGGAGTCACCTAGTGCAG | 8120 fluorescence intensity (a.u.)
GCCTGTGTGCGGCTTGCTTGCTTCATTTTCAGCCGATTTTCGGAGTCACCTAGTGCAG | 9760 fluorescence intensity (a.u.)
TTGCACGGTTTTCTCGCTCGCCGCCACACGGTCTACGAGACGGAGTCACCTAGTGCAG | 8240 fluorescence intensity (a.u.)
GCCAGCATACATGTGGCAGTGAGACCCTCTGGCACCTTCACGGAGTCACCTAGTGCAG | 9160 fluorescence intensity (a.u.)
TCGCCGTCTCTGGCCTCCCTTTGCCTCTCACCAACCGGCTCGGAGTCACCTAGTGCAG | 9520 fluorescence intensity (a.u.)
TATTGCCATGTTGATTTGAAAAACATCCTCGTATTTTTCCCGGAGTCACCTAGTGCAG | 9410 fluorescence intensity (a.u.)
CCCTTTCTTACCTGTGCCGGCTTTAACCAACGTATTCCTCCGGAGTCACCTAGTGCAG | 8460 fluorescence intensity (a.u.)
TCTTCTCCTCTCTCCTCTCACTGACCCGCCCCGCCTCCTTCGGAGTCACCTAGTGCAG | 8200 fluorescence intensity (a.u.)
TACTGTTCTTCATCCACCTTTTGTTTTCCATGAACAAAAACGGAGTCACCTAGTGCAG | 9040 fluorescence intensity (a.u.)
TGCCACCACCGCCACCGCCAGCGAGCTGGATGAGCCAGCACGGAGTCACCTAGTGCAG | 9060 fluorescence intensity (a.u.)
GGTTTTGTGATTTTGACACCCATTCAGGTTCGTTGTTTTTCGGAGTCACCTAGTGCAG | 11900 fluorescence intensity (a.u.)

Quoted at random: 2 entries already listed.
Sequence | binding signal
TGCCACCACCGCCACCGCCAGCGAGCTGGATGAGCCAGCACGGAGTCACCTAGTGCAG | 9060 fluorescence intensity (a.u.)
GGTTTTGTGATTTTGACACCCATTCAGGTTCGTTGTTTTTCGGAGTCACCTAGTGCAG | 11900 fluorescence intensity (a.u.)
